Reference: the supplement of paper PMC4604168 (melanoma cell lines)
The list shows a part of the results. Many values rest on one well or one pass, so single values are uncertain.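 The apoptosis fraction was the count of cleaved-PARP antibody-stained nuclei relative to all DNA-stained nuclei, imaged in 1,536-well plates. Screening doses were set so most cells survived, and baseline and induced cleaved-PARP levels vary greatly across cell lines.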

These compounds were tested on C32 (assay: cleaved PARP positive nuclei fraction relative to DMSO control; melanoma cells; higher = more apoptosis). Details: library dose: low library concentration; 72 h.

SMILES | cleaved PARP positive nuclei fraction [%]
O=C(/C=C/c1cccnc1)NCCCCC1CCN(C(=O)c2ccccc2)CC1 + CC1(C)NC(=O)N(c2ccc([N+](=O)[O-])c(C(F)(F)F)c2)C1=O [nilutamide] (first compound 0.01 µM, partner dose 1 µM) | 104
Cc1ccc(Nc2nccc(N(C)c3ccc4c(C)n(C)nc4c3)n2)cc1S(N)(=O)=O [Pazopanib] + C[C@@H]1CCN(C(=O)CC#N)C[C@@H]1N(C)c1ncnc2[nH]ccc12 [CP690550] (first compound 0.4 µM, partner dose 1 µM) | 104
O=C(Nc1cc(C(F)(F)F)cc(C(F)(F)F)c1)c1cc(Cl)ccc1O + Cc1cc(N2CCOCC2)cc2[nH]c(-c3c(NC[C@@H](O)c4cccc(Cl)c4)cc[nH]c3=O)nc12 [BMS536924] (first compound 0.016 µM, partner dose 0.2 µM) | 201
Cc1cn(-c2cc(NC(=O)c3ccc(C)c(Nc4nccc(-c5cccnc5)n4)c3)cc(C(F)(F)F)c2)cn1 [nilotinib] + CO[C@@H]1[C@H](N(C)C(=O)c2ccccc2)C[C@H]2O[C@]1(C)n1c3ccccc3c3c4c(c5c6ccccc6n2c5c31)C(=O)NC4 [Midostaurin] (first compound 0.2 µM, partner dose 0.08 µM) | 239
O=C(Nc1cc(C(F)(F)F)cc(C(F)(F)F)c1)c1cc(Cl)ccc1O + NC(=O)Nc1cc(-c2cccc(F)c2)sc1C(=O)N[C@H]1CCCNC1 [AZD7762] (first compound 0.016 µM, partner dose 0.02 µM) | 75
Cc1ccc(Nc2nccc(N(C)c3ccc4c(C)n(C)nc4c3)n2)cc1S(N)(=O)=O [Pazopanib] + COc1cc2c(Oc3ccc4[nH]c(C)cc4c3F)ncnc2cc1OCCCN1CCCC1 [cediranib] (first compound 0.4 µM, partner dose 0.4 µM) | 76
Cc1cn(-c2cc(NC(=O)c3ccc(C)c(Nc4nccc(-c5cccnc5)n4)c3)cc(C(F)(F)F)c2)cn1 [nilotinib] + Cc1cc(N2CCOCC2)cc2[nH]c(-c3c(NC[C@@H](O)c4cccc(Cl)c4)cc[nH]c3=O)nc12 [BMS536924] (first compound 0.2 µM, partner dose 0.2 µM) | 204
O=c1[nH]nc(Sc2ncc([N+](=O)[O-])s2)n1-c1ccc2c(c1)OCCO2 + O=C(Nc1cccc(Cl)c1)Nc1ncc(CCNc2ncnc3ccsc23)s1 [SNS314] (first compound 0.2 µM, partner dose 0.0008 µM) | 76.1
Cc1ccc(Nc2nccc(N(C)c3ccc4c(C)n(C)nc4c3)n2)cc1S(N)(=O)=O [Pazopanib] + Cc1cc(N2CCOCC2)cc2[nH]c(-c3c(NC[C@@H](O)c4cccc(Cl)c4)cc[nH]c3=O)nc12 [BMS536924] (first compound 0.4 µM, partner dose 0.2 µM) | 103
COc1cc([C@@H]2c3cc4c(cc3[C@@H](O[C@@H]3O[C@@H]5CO[C@@H](C)O[C@H]5[C@H](O)[C@H]3O)[C@H]3COC(=O)[C@H]23)OCO4)cc(OC)c1O [etoposide] + C[C@@H]1CCN(C(=O)CC#N)C[C@@H]1N(C)c1ncnc2[nH]ccc12 [CP690550] (first compound 0.02 µM, partner dose 1 µM) | 113
Cc1cc(Nc2cc(N3CCN(C)CC3)nc(Sc3ccc(NC(=O)C4CC4)cc3)n2)n[nH]1 [Tozasertib] + CN(C)S(=O)(=O)c1ccc2c(c1)/C(=C/c1cc3c([nH]1)CCCC3)C(=O)N2 [SU6656] (first compound 0.006 µM, partner dose 0.4 µM) | 116
O=C(/C=C/c1cccnc1)NCCCCC1CCN(C(=O)c2ccccc2)CC1 + CN(NC(=O)CC(=O)NN(C)C(=S)c1ccccc1)C(=S)c1ccccc1 [STA4783] (first compound 0.01 µM, partner dose 0.006 µM) | 189
O=C(Nc1cc(C(F)(F)F)cc(C(F)(F)F)c1)c1cc(Cl)ccc1O + CN(NC(=O)CC(=O)NN(C)C(=S)c1ccccc1)C(=S)c1ccccc1 [STA4783] (first compound 0.016 µM, partner dose 0.006 µM) | 52.1
COc1cc([C@@H]2c3cc4c(cc3[C@@H](O[C@@H]3O[C@@H]5CO[C@@H](C)O[C@H]5[C@H](O)[C@H]3O)[C@H]3COC(=O)[C@H]23)OCO4)cc(OC)c1O [etoposide] + NC(=O)Nc1cc(-c2cccc(F)c2)sc1C(=O)N[C@H]1CCCNC1 [AZD7762] (first compound 0.02 µM, partner dose 0.02 µM) | 37.4

An excerpt of these results, as tab-separated lines.
SMILES	cleaved PARP positive nuclei fraction [%]
O=C(Nc1cc(C(F)(F)F)cc(C(F)(F)F)c1)c1cc(Cl)ccc1O + NC(=O)Nc1cc(-c2cccc(F)c2)sc1C(=O)N[C@H]1CCCNC1 [AZD7762] (first compound 0.016 µM, partner dose 0.02 µM)	75
Cc1ccc(Nc2nccc(N(C)c3ccc4c(C)n(C)nc4c3)n2)cc1S(N)(=O)=O [Pazopanib] + COc1cc2c(Oc3ccc4[nH]c(C)cc4c3F)ncnc2cc1OCCCN1CCCC1 [cediranib] (first compound 0.4 µM, partner dose 0.4 µM)	76
Cc1cn(-c2cc(NC(=O)c3ccc(C)c(Nc4nccc(-c5cccnc5)n4)c3)cc(C(F)(F)F)c2)cn1 [nilotinib] + Cc1cc(N2CCOCC2)cc2[nH]c(-c3c(NC[C@@H](O)c4cccc(Cl)c4)cc[nH]c3=O)nc12 [BMS536924] (first compound 0.2 µM, partner dose 0.2 µM)	204
O=c1[nH]nc(Sc2ncc([N+](=O)[O-])s2)n1-c1ccc2c(c1)OCCO2 + O=C(Nc1cccc(Cl)c1)Nc1ncc(CCNc2ncnc3ccsc23)s1 [SNS314] (first compound 0.2 µM, partner dose 0.0008 µM)	76.1
